The list shows a part of the results.

The assay can be described thus: modulators of beta-catenin nuclear translocation, primary screen, imaging, HeLa cells, immunofluorescence, high-content (AID 1665). The settings on record: measured here: cell count, cytotoxicity flag, at 5 µM.
Compound `CC(=O)Nc1ccc([As](=O)(O)O)c(O)c1` displayed a cell count of 1140 cells.
For `C[C@@H]1C=CCP(=O)(Oc2ccccc2)O1` (stereo partly specified) the value was 1210 cells; for `C[C@H]1OP(=O)(Oc2ccccc2)C[C@@H]2O[C@@H]21` (stereo partly specified), 1170 cells; for `O=C(OCCN1CCN(CCOCc2ccccc2)CC1)C(O)(c1ccccc1)c1ccccc1`, 995 cells.
For `O=C(OC1CN2CCC1CC2)c1ccc([N+](=O)[O-])cc1` (stereo unspecified) the value was 967 cells.
With `CC(C)c1ccc(OP(C)(=O)Nc2ccc(SC(F)(F)F)cc2)cc1` (stereo unspecified) the figure was 1020 cells.
As to `CC(C)(C)C(=O)NC(Sc1ccccc1)C(Cl)(Cl)Cl` (stereo unspecified), the cell count is 1160 cells.
Regarding `CP(=O)(Nc1ccccc1F)Oc1ccccc1` (stereo unspecified), the cell count was determined as 1020 cells.
With `CCOc1ccc(C2=NCC(CBr)S2)cc1` (stereo unspecified) the figure was 969 cells; with `O=P1(Nc2nc3ccc(Cl)cc3s2)COc2ccccc2O1` (stereo unspecified), 1240 cells.
The compound `Cc1ccccc1NP(C)(=O)Nc1ccccc1C` had a cell count of 826 cells.
On to `CP(=O)(Nc1ccc2c(c1)OCCO2)Oc1ccccc1` (stereo unspecified), for which the cell count was 1240 cells.
For `c1nnnn1CCn1cnnn1` the value was 1200 cells; for `CCOP(C)(=S)SCC(=O)NC(C)(CC)C(=O)O` (stereo unspecified), 998 cells; for `O=P(Nc1nccs1)(c1ccccc1)c1ccccc1`, 1090 cells.
For `CC(C)C(=O)NC(Sc1ccccc1)C(Cl)(Cl)Cl` (stereo unspecified) the value was 1120 cells; for `CP(=O)(Nc1ccc(SC(F)(F)F)cc1)Oc1ccc(F)cc1` (stereo unspecified), 1270 cells; for `O=C(OC1CN2CCC1CC2)c1cccc(Cl)c1` (stereo unspecified), 1100 cells.
With `Nc1ccc([As](=O)(O)c2ccc([N+](=O)[O-])cc2)cc1` the figure was 1350 cells; with `C(Cc1nn[nH]n1)Cc1nn[nH]n1`, 524 cells.
For `O=[N+]([O-])c1cc([N+](=O)[O-])c(NCC2CCS(=O)(=O)C2)c([N+](=O)[O-])c1` (stereo unspecified), the cell count was determined as 912 cells.
As for `Cc1cc(-c2cccc3ccccc23)c(C)cn1.O=[N+]([O-])c1cc([N+](=O)[O-])c(O)c([N+](=O)[O-])c1`, the cell count stood at 1220 cells.
Compound `O=[As](O)(c1ccccc1)c1ccc(O)cc1` gave a cell count of 1370 cells.
For `O=[N+]([O-])c1ncn(CCn2cnc([N+](=O)[O-])n2)n1` the value was 1220 cells; for `CC(=O)NC(SC(=S)N(C)C)C(Cl)(Cl)Cl` (stereo unspecified), 537 cells.
For `O=[N+]([O-])c1ccc(OP2(=O)COCCO2)cc1` (stereo unspecified) the value was 1260 cells.
For `COc1ccc(NP(C)(=O)Oc2ccccc2OC)cc1` (stereo unspecified) the value was 1130 cells; for `C[C@H]1OP(=O)(Oc2ccccc2)[C@H](O)[C@H](O)[C@H]1N=[N+]=[N-]` (stereo partly specified), 1100 cells; for `O=P(Nc1nc2ccccc2s1)(c1ccccc1)c1ccccc1`, 1170 cells.
As for `CN(C)CCOC(=O)C(O)(c1ccccc1)C1CCCCC1` (stereo unspecified), the cell count was 1100 cells.
With `O=P(Nc1ccccn1)(c1ccc(Br)cc1)c1ccc(Br)cc1` the figure was 1550 cells; with `COc1ccc(OP(C)(=O)Nc2cccc(Br)c2)cc1` (stereo unspecified), 1330 cells.
With `CP(=O)(Nc1ccc(SC(F)(F)F)cc1)Oc1ccccc1` (stereo unspecified) the figure was 554 cells.
For `Nc1cccc([As](=O)(O)c2ccccc2)c1` the value was 1340 cells; for `CCCOc1ccc(NP(C)(=O)Oc2ccc(Cl)cc2)cc1` (stereo unspecified), 1000 cells; for `O=P1(Nc2ccc(Br)cn2)COc2ccccc2OC1`, 1090 cells.
In the case of `O=[As](O)(c1cccs1)c1cccs1`, the cell count was found to be 1310 cells.
For `Cc1ccc(OCC(=O)OC2CN3CCC2CC3)cc1` (stereo unspecified) the value was 1130 cells; for `O=P1(Nc2ncccn2)COc2ccccc2OC1`, 1100 cells; for `CN1CCCCC1COC(=O)C1(O)c2ccccc2CCc2ccccc21` (stereo unspecified), 949 cells.
With `COc1ccccc1OP(C)(=O)Nc1c(C)cccc1C` (stereo unspecified) the figure was 1410 cells; with `CCOC(=O)C(CC)C1=NC(C)(C)Cc2ccccc21.O=[N+]([O-])c1cc([N+](=O)[O-])c(O)c([N+](=O)[O-])c1` (stereo unspecified), 1140 cells; with `O=[N+]([O-])c1cc([N+](=O)[O-])c(Nc2nnnn2CCO)c([N+](=O)[O-])c1`, 1270 cells.
With `CN(C)C1(CNC(=O)c2ccc(S(C)(=O)=O)cc2)CCCCC1` the figure was 1080 cells; with `O=C(/C=C/c1ccccc1)OC1CN2CCC1CC2` (stereo unspecified), 1020 cells; with `CC1CCC(C(C)C)C(OP(=O)(Nc2ccccn2)c2ccccc2)C1` (stereo unspecified), 1000 cells.
Take `COc1cc(C2NCCC3(OCCO3)C2(C)C)cc(OC)c1OC.O=[N+]([O-])c1cc([N+](=O)[O-])c(O)c([N+](=O)[O-])c1` (stereo unspecified): the cell count is 1040 cells.
With `CN(C(=O)Cc1ccc(Cl)c(Cl)c1)[C@@H]1CCCC[C@H]1N1CCCC1` the figure was 1170 cells; with `CC(C)/C=N\N=C(\N)N[N+](=O)[O-]`, 978 cells; with `Cc1nc2ccc3ccccc3c2s1.O=[N+]([O-])c1cc([N+](=O)[O-])c(O)c([N+](=O)[O-])c1`, 1110 cells.
With `O=[As](O)(c1ccccc1Br)c1ccccc1Br` the figure was 1170 cells; with `CC(C)(C)C(=O)NC(Sc1ncccn1)C(Cl)(Cl)Cl` (stereo unspecified), 1110 cells; with `Clc1n[nH]nc1-c1nn[nH][15n]1`, 1400 cells.
With `O=[N+]([O-])c1cc([N+](=O)[O-])c(-n2nnc3ccccc32)c([N+](=O)[O-])c1` the figure was 911 cells; with `O=P1(Nc2ccccn2)COc2ccccc2OC1`, 1180 cells.
For `CCOP(=O)(Nc1ccc(C)cn1)OCC`, the cell count was 1340 cells.
For `CCOP(=O)(Nc1cccc2ccccc12)OCC` the value was 519 cells.
Compound `Nc1cccc2c([As](=O)(O)O)cccc12` yielded a cell count of 1170 cells.
With `Cc1ccc(NCCc2c([N+](=O)[O-])cc([N+](=O)[O-])cc2[N+](=O)[O-])cc1` the figure was 1090 cells.
With `CP(=O)(Nc1cccc(Br)c1)Oc1ccccc1` (stereo unspecified) the figure was 1070 cells.
In turn, `CCCOP(=S)(Nc1nc(N)cc(=O)[nH]1)OCCC` displayed a cell count of 1400 cells.
For `Cc1ccc(C)c(NP(C)(=O)Oc2ccccc2)c1` (stereo unspecified) the value was 769 cells.
In turn, `O=[As](O)(c1cccc(O)c1)c1cccc(O)c1` registered a cell count of 1240 cells.
For `Cc1cccc(OCC(=O)OC2CN3CCC2CC3)c1` (stereo unspecified) the value was 1040 cells; for `CCOC(=O)c1ccc(NP(C)(=O)Oc2cc(C)cc(C)c2)cc1` (stereo unspecified), 1030 cells; for `O=C(OC1CN2CCC1CC2)c1ccc(Cl)cc1` (stereo unspecified), 1340 cells.
For `COc1ccccc1OP(C)(=O)Nc1cccc(Br)c1` (stereo unspecified) the value was 1270 cells.
Regarding `COc1cc(C(=O)NCC2(N3CCOCC3)CCCCC2)cc(Cl)c1OC(C)C`, the cell count was 1140 cells.
With `O=[As](O)(O)c1cccnc1` the figure was 1340 cells.
For `CN(C(=O)Cc1ccccc1)[C@@H]1CC[C@]2(CCCO2)C[C@H]1N1CCCC1` the value was 1140 cells; for `CCOP1(=S)c2c(C)nn(CCC#N)c2N=C(c2ccc(F)cc2)N1C` (stereo unspecified), 1160 cells.
With `CC1=NCCc2c1[nH]c1ccccc21.O=[N+]([O-])c1cc([N+](=O)[O-])c(O)c([N+](=O)[O-])c1` the figure was 838 cells; with `O=[N+]([O-])c1ccc2c(c1)nnn2O`, 1240 cells; with `NC(=O)Nc1ccc([As](=O)(O)O)cc1`, 1140 cells.
In turn, `O=C(O)COc1ccc([As](=O)(O)O)cc1[N+](=O)[O-]` displayed a cell count of 1260 cells.
`Nc1ccccc1[As](=O)(O)c1ccccc1` had a cell count of 1360 cells.
For `O=P(Nc1nccs1)(c1ccccc1)c1nc2ccccc2s1` (stereo unspecified) the value was 1080 cells.
For `O=P(Nc1nccs1)(Oc1ccccc1)Oc1ccccc1`, the cell count was determined as 559 cells.
For `O=C(O)c1cccc(Nc2c([N+](=O)[O-])cc([N+](=O)[O-])cc2[N+](=O)[O-])c1` the value was 1340 cells; for `CS(=O)(=O)c1cc([N+](=O)[O-])c2no[n+]([O-])c2c1`, 1310 cells; for `O=[N+]([O-])c1cc([N+](=O)[O-])c(-c2ccn[nH]2)s1`, 440 cells.
With `CCN(CC)C(=S)SC(NC=O)C(Cl)(Cl)Cl` (stereo unspecified) the figure was 999 cells.
For `CC(C)NC(=O)NP(=O)(Oc1ccccc1)Oc1ccccc1` the value was 1100 cells.
`COc1ccccc1OP(C)(=O)Nc1cc(Cl)ccc1C` (stereo unspecified) gave a cell count of 880 cells.
With `Cc1cc(C)cc(OP(C)(N)=O)c1` (stereo unspecified) the figure was 1090 cells; with `ClCCSc1nnc(-c2cccnc2)o1`, 940 cells.
With `CCOC(=O)c1ccc(NP(C)(=O)Oc2ccccc2)cc1` (stereo unspecified) the figure was 581 cells; with `CC(C)c1ccc(OP(=O)(Nc2ccccn2)Oc2ccccc2F)cc1` (stereo unspecified), 1330 cells.
`Cc1ccc(NP(C)(=O)Oc2ccccc2)c(C)c1` (stereo unspecified) registered a cell count of 1120 cells.
With `Cc1cccc(C)c1OP(C)(N)=O` (stereo unspecified) the figure was 1100 cells; with `CC(C)(C)c1ccc(OP(C)(=O)Nc2ccc(SC(F)(F)F)cc2)cc1` (stereo unspecified), 1100 cells; with `Cc1ccc(OP(=O)(Nc2ccc([N+](=O)[O-])cn2)Oc2ccc(C)cc2)cc1`, 1150 cells.
For `Cc1ccc2nc3c(c(C)c2c1)CC(C(Cl)Cl)S3` (stereo unspecified) the value was 1160 cells; for `O=[N+]([O-])c1ccc2c(c1)C=Nc1ccccc1O2`, 1110 cells.
With `C[As](=O)(O)c1cccc(C(=O)O)c1` the figure was 1100 cells; with `O=[As](O)(c1ccc(O)cc1)c1ccccc1O`, 1390 cells; with `COc1ccc(N/C(=N/P(=O)(N2CCOCC2)N2CCOCC2)N2CCOCC2)cc1`, 1110 cells.
As to `COc1cc(I)ccc1[As](=O)(O)O`, the cell count stood at 1300 cells.
Turning to `COc1ccc2nc(NP(=O)(c3ccccc3)c3ccccc3)sc2c1`, the cell count was 1090 cells.
With `Cc1c2c(nc3ccccc13)SC(C(Cl)Cl)C2` (stereo unspecified) the figure was 1220 cells.
For `CCN(CC)CCCOC(=O)C(O)(c1ccccc1)c1ccccc1` the value was 1150 cells; for `Cc1cc(=O)[nH]c(N[N+](=O)[O-])n1`, 1060 cells.
With `O=C(OC1CN2CCC1CC2)C12CC3CC(CC(C3)C1)C2` (stereo unspecified) the figure was 1140 cells.
Take `CCC(C)N(CC(C)C)C(=S)SC(NC(C)=O)C(Cl)(Cl)Cl` (stereo unspecified): the cell count was found to be 572 cells.
With `CP(=O)(Nc1ccccn1)Oc1ccc(Cl)cc1` (stereo unspecified) the figure was 1150 cells; with `CCOP(C)(=S)SCC(=O)NC(C)C(=O)O` (stereo unspecified), 933 cells; with `CCOC(=O)c1ccc(NC(=O)C(C)(CCl)SC)cc1` (stereo unspecified), 1310 cells.
For `Cc1cc(C)cc(OP(C)(=O)Nc2ccc(SC(F)(F)F)cc2)c1` (stereo unspecified), the cell count worked out at 1140 cells.
`CCc1ccc(OP(C)(=O)N2CCN(c3ccc([N+](=O)[O-])cc3)CC2)cc1` (stereo unspecified): the cell count worked out at 1320 cells.
With `CP(=O)(NC(=O)Nc1ccccc1)Oc1ccccc1` (stereo unspecified), the cell count amounted to 1120 cells.
For `O=C(COc1ccccc1)OC1CN2CCC1CC2` (stereo unspecified) the value was 1180 cells; for `CP(=O)(Oc1ccccc1)OC(c1ccccc1)C(F)(F)F` (stereo unspecified), 1050 cells.
With `CP(=O)(Nc1ccc(SC(F)(F)F)cc1)Oc1ccc(Cl)cc1` (stereo unspecified) the figure was 1360 cells.
With `Cc1cccc(C)c1OP(C)(=O)Nc1ccc(SC(F)(F)F)cc1` (stereo unspecified) the figure was 1120 cells; with `COc1ccccc1OP(C)(=O)Nc1ccccc1` (stereo unspecified), 1090 cells; with `Cc1cc(SC(NC=O)C(Cl)(Cl)Cl)ncn1` (stereo unspecified), 1140 cells.
Compound `O=P(Nc1ccccn1)(c1cccc2ccccc12)c1cccc2ccccc12` registered a cell count of 1590 cells.
For `O=[N+]([O-])c1ccc(Nc2ccc(Oc3ccc([N+](=O)[O-])cc3[N+](=O)[O-])cc2)c([N+](=O)[O-])c1` the value was 1240 cells; for `CCOC(=O)Nc1cccc([As](=O)(O)O)c1`, 1060 cells; for `Cc1cc(SC(NC(=O)c2ccccc2)C(Cl)(Cl)Cl)nc(C(C)C)n1` (stereo unspecified), 1010 cells.
With `CCOC(=O)Nc1ccc([As](=O)(O)O)c(O)c1` the figure was 1270 cells.

The values above are taken from PubChem BioAssay AID1665 (Sanford-Burnham Center for Chemical Genomics, 2009).
